Read-outs that look alike come from different tables or passages of the source. Results are given in words; binding and its absence hold for the method and conditions named. In cells and extracts the contact can be indirect. Some binding calls cover weakened binding; strength is not graded here.

Protein sequences, listed by entry. Tags and fused reporters are not part of them. Residues count along the entry.
UniProt Q8DVX3, residues 21-271: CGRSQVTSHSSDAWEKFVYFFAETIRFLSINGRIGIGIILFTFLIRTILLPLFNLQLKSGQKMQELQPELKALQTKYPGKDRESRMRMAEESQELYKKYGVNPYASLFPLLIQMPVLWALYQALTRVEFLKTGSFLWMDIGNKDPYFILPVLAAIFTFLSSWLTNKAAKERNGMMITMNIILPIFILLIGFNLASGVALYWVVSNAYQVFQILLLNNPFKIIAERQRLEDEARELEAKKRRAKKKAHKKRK
UniProt Q8DSP8, residues 24-310: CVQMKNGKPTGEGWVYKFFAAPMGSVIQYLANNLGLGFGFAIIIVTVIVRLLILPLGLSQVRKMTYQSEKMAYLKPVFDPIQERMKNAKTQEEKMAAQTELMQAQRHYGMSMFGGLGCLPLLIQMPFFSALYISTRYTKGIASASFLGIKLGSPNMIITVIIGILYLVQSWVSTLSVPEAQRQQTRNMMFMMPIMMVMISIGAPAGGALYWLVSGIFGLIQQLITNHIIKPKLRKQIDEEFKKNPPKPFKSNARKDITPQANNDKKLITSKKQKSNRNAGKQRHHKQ
UniProt Q8CWX8: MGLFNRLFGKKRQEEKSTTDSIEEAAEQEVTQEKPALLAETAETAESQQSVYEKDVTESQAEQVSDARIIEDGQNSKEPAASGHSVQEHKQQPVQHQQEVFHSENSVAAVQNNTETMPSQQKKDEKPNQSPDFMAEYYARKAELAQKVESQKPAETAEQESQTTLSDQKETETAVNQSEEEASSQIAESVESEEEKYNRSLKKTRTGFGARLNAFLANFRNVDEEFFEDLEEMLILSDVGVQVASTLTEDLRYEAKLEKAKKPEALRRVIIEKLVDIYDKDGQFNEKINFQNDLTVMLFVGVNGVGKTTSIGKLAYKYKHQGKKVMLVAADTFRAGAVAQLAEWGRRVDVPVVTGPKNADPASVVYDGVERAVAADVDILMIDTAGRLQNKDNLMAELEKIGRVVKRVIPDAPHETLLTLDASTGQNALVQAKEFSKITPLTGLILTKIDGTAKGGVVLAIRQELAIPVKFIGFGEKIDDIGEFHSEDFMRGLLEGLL

Common to all, as to experiment: cross-linking
Experiment [1] addresses YidC1 (Streptococcus mutans (endogenous in UA159)) (UniProt Q8DVX3).
Experiment [2] has as its target YidC2 (Streptococcus mutans (endogenous in UA159 and NG8)) (UniProt Q8DSP8).
The target in experiment [3] is YidC1 (Streptococcus mutans (endogenous in UA159)) (UniProt Q8DVX3). This is another data set of the same source.

Consider FtsY (from UniProt Q8CWX8 1-498), for which the binding entry in experiment [1] is reported as “no binding”.

B1: Ffh (protein, UniProt Q54431 1-516)
chain: MAFESLTERLQGVFKNLRGKRKLSEKDVQEVTKEIRLALLEADVALPVVKEFIKRVRKRAVGHEVIDTLDPSQQIIKIVNEELTAVLGSETAEIEKSSKIPTIIMMVGLQGAGKTTFAGKLANKLVKEENARPLMIAADIYRPAAIDQLKTLGQQINVPVFDMGTEHSAVEIVSQGLAQAKENRNDYVLIDTAGRLQIDEKLMTELRDIKALANPNEILLVVDSMIGQEAANVAREFNQQLEVTGVILTKIDGDTRGGAALSVRQITGKPIKFTGTGEKITDIETFHPDRMSSRILGMGDLLTLIEKASQDYDEQKSAELAEKMRENSFDFNDFIEQLDQVQNMGSMEDILKMIPGMANNPALANVKVDEGEIARKRAIVSSMTPEERENPDLLTPSRRRRIASGSGNTFVNVNKFIKDFNQAKKMMQGVMSGDMNKVMKQMGINPNNMPKNMDSSALEGMMGQGGMPDMSELSGTNMDVSQMFGGGLKGKVGEFAMKQSMKKMAKRMKKAKKRKK
Regarding B1, the binding result in experiment [2] was “binds”; in experiment [3], “no binding”.

The values are drawn from publication doi:10.1101/2020.04.07.031013.
